# From the supplement of paper PMC4683952
# The other results are listed elsewhere or left out. No stated cut-off is given here; in the data, active = 2 or more and inactive = the rest. Repeats in this data set agree poorly, so a single value says little.
# System: Lgr5 (MarsCy1-Lgr5-EGFP, U2OS)
# Experiment: cell-surface Lgr5 expression (SCi1 fluorescence, background-subtracted) relative to WT DMSO (fold of DMSO control); higher = more Lgr5 at the plasma membrane
# Details: U2OS MarsCy1-Lgr5-EGFP stable; treatment time: overnight; library: ActiProbe-5K (TimTec); 25 µM
row,Structure (SMILES),cell-surface Lgr5 expression
1,Cc1c(C#N)c(N)n(Cc2ccco2)c1C,inactive: 1.68
2,CC(=O)CN1C(Br)=NC2C1C(=O)N(C)C(=O)N2C (centres undefined),inactive: 0.986
3,O=C(c1ccc(-c2cccs2)[nH]1)C(F)(F)F,inactive: 1.12
4,CC(C)(C)C1=NOC(O)(C(F)(F)F)C1 (centres undefined),inactive: 1.06
5,COc1cc(-c2nnc(SCc3ccon3)o2)cc(OC)c1OC,inactive: 1.75
6,Cc1ccc(/C=N/n2c(C)cc(C)c(C#N)c2=O)s1,inactive: 0.973
7,Cc1oc(C(=O)O)cc1CSC(C)C(=O)O (centres undefined),inactive: 1.33
8,C#Cc1ccc(-c2ccc(CCCCCCCCC)cc2)cc1,inactive: 1.6
9,O=C(Nc1ccc2c(c1)OCO2)C(=O)NC1CC1,inactive: 1.05
10,Cn1c(C(C)(C)C)nc(N)nc1=O,inactive: 1.05
11,N#CC1=C(N)C(C#N)(C#N)[C@H](c2ccc(F)cc2)[C@H]2COCC=C12,inactive: 0.969
12,CN(C)CCCC1(c2ccc(F)cc2)OCc2cc(C#N)ccc21 (centres undefined),inactive: 1.39
13,O=C(Nc1ccc2c(c1)OC1(CCCCC1)O2)C1CCC(=O)N1C(=O)C1CCCN1 (centres undefined),inactive: 1.14
14,N#CCSc1sc2c(O)cc(=O)[nH]c2c1C#N,inactive: 1.35
15,s1cc(nc1/N=C(\N)N)CS(N)=N.Cl (centres undefined),inactive: 1.21
16,Brc1ccccc1-c1nnc(C(c2ccccc2)c2ccccc2)o1,inactive: 0.986
17,Cc1nnc(SCC(=O)Nc2nccs2)s1,inactive: 1.15
18,Fc1ccc(CSc2nc(SCc3ccc(F)cc3)nc(SCc3ccc(F)cc3)n2)cc1,inactive: 1.12
19,N#CCN(CC#N)S(=O)(=O)c1ccc(Br)cc1,inactive: 1.02
20,CCCCc1c(C)nc(N/N=C/c2ccco2)nc1O,inactive: 1.81
21,N#CCSc1nsc2sc(C#N)c(N)c12,inactive: 1.11
22,[O-][n+]1onc2c1CCc1c-2nc(-c2ccco2)n1O,inactive: 1.38
23,N#Cc1ncc(Br)cn1,inactive: 1.64

row,Structure (SMILES),cell-surface Lgr5 expression
1,Cn1c(=S)n(CN2CCOCC2)c2ccccc21,inactive: 1.26
2,O=S(=O)(NC1CC1)c1ccc(OCCn2cnnn2)cc1,inactive: 0.999
3,O=C1c2ccccc2C(O)(O)C1(O)C1(O)C(=O)c2ccccc2C1(O)O (centres undefined),inactive: 1.26
4,CC(C)(C)[C@@H]1CCCC[C@H]1N,inactive: 0.971
5,O=C(O)/C=C\C(=O)NNC(=O)C1CCCCC1,inactive: 1.27
6,O=c1c2c3c(sc2nc(S)n1C1CCCCC1)CCCC3,inactive: 0.654
7,C=C(C)C#CCN1CCCCC1,inactive: 1.05
8,CS(=O)(=O)c1ccc2nc(NS(=O)(=O)c3ccccc3)sc2c1,inactive: 1.03
9,Cl.c1ccc(CNc2nc(NCc3ccccc3)c3ccccc3n2)cc1,inactive: 0.52
10,O=[N+]([O-])c1ccc2c(c1)CSc1nc3ccccc3n1-2,inactive: 1.45
11,CCN1C(=O)/C(=C2\SC(=S)N(C3CCS(=O)(=O)C3)C2=O)c2ccccc21 (centres undefined),inactive: 1.82
12,Cc1ccc(/C=N/n2c(S)nnc2-c2ccco2)o1,inactive: 1.09
13,CCOC(=O)c1sc(N2N=C(C)/C(=C/c3cccs3)C2=O)nc1C,inactive: 1.04
14,COc1cc(/C=N/n2c(S)nnc2-c2cc(OC)c(OC)c(OC)c2)cc(OC)c1OC,inactive: 1.35
15,Cc1nc2nc(S(=O)(=O)N(CC(C)C)CC(C)C)nn2c(C)c1C,inactive: 1.22
16,O=S(=O)(Nc1ccc(F)c(F)c1)c1ccc(Cl)s1,inactive: 1.18
17,O=C(N/N=C/C=C\c1ccco1)c1cccs1,inactive: 1.04
18,O=C(CCCCCCCC(=O)N/N=C/c1cc(Br)cs1)N/N=C\c1cc(Br)cs1,inactive: 1.06
19,COc1ccc(NS(C)(=O)=O)c(OC)c1,inactive: 0.981
20,C=CCSc1nc2c(cc1C#N)CCC2,inactive: 1.28
21,Cn1c(=O)n(C)c2c(=O)[nH]ccc21,inactive: 1.29
22,CSc1nsc(N)n1,inactive: 1.44
23,O=c1cc(O)c2sc3[nH]c(=O)c([N+](=O)[O-])cc3c2[nH]1,inactive: 0.851

row,Structure (SMILES),cell-surface Lgr5 expression
1,CC(=O)CC(=O)c1cccs1,inactive: 1.12
2,C1(/C(OC(OC1=O)(C)C)=O)=C1/NCCCCC1,inactive: 1.28
3,O=C(O)c1[nH]nc([N+](=O)[O-])c1Br,inactive: 1.12
4,Cc1cc2c(cc1Br)NC(=O)/C2=N/O,inactive: 0.78
5,CN(C)c1ccc(O)o1.Cl,inactive: 1.22
6,CC(=O)OCCC(O)C1=CCC2C3CC=C4CC(OC(C)=O)CCC4(C)C3CCC12C (centres undefined),inactive: 1.66
7,Cn1cc(-c2n[nH]cc2Cl)cn1,inactive: 0.922
8,CC(C)Cc1nnc(NC(=O)CC(C)(C)C)s1,inactive: 1.15
9,CSc1nc2nnc(-c3nc4ccccc4[nH]3)c(N)n2n1,inactive: 1.09
10,O=c1cc(-c2cc(Cl)cc3c2OCOC3)oc2ccc(Cl)cc12,inactive: 1.17
11,O=C(CN1CCCC1)Nc1nc2c(s1)C(=O)CC(O)(O)C2,inactive: 0.995
12,O=c1[nH]cnc2c1oc1ccc(Br)cc12,inactive: 1.27
13,O=C(NC1CCCCCC1)N1CCOCC1,inactive: 1.02
14,COc1ccc(C2CS(=O)(=O)CS(=O)(=O)C2)cc1OC,inactive: 1.2
15,O=[N+]([O-])c1ccc(Cl)c(/C=N\c2ccc(Cl)c([N+](=O)[O-])c2)c1,inactive: 1.89
16,CC1(C)CCCC(C)(C#CCN2CCN(CCO)CC2)O1 (centres undefined),inactive: 1.31
17,Clc1cccc2c3c([nH]c12)CCNC3,inactive: 1.29
18,Cc1sc(NC(=O)C2CCCO2)c(C(N)=O)c1C (centres undefined),inactive: 1.43
19,O=c1[nH]nc(S)n1C1CCCCC1,inactive: 1.09
20,S=C(Nc1ccccc1)Nc1cc(Cl)c(Cl)cc1Cl,inactive: 1.04
21,Nc1c(N)c(N)c(N)c(N)c1N,inactive: 1.13
22,CN1C(=O)/C(=C2\SC(=S)N(CC3CCCO3)C2=O)c2cc(Br)ccc21 (centres undefined),inactive: 1.29
23,Cc1ccccc1-c1nn2c(-c3n[nH]c4c3CCC4)nnc2s1,inactive: 1.23
